Data published in US12458612B2, “Combination therapy comprising compounds of formula (I) and GLP-1 receptor agonists” (GENFIT, priority 2019, dated 2025).

System: DIO-NASH mice
Test: Liver transcriptomic (RNAseq) analysis, 12 weeks in DIO-NASH mice (Example 3)
Type: in vivo
Conditions: SEMA 0.3 nmol/kg/day
Description: Male C57BL/6JRj mice were fed with the AMLN diet 35 weeks prior to study start (DIO-NASH model). Mice with biopsy confirmed steatosis (score ≥2) and fibrosis (score ≥1) were randomized into treatment groups (n=12-14 per group). Mice received either vehicles, elafibranor (10 mg/kg/day, per os), semaglutide (0.3 nmol/kg/day, SC) or both elafibranor and semaglutide for 12 weeks. Suboptimal drug doses were used in this study. To avoid SEMA-induced hypophagia, an up-titration protocol was applied during the first 3 weeks of treatment.
On the last day of treatment, plasma samples were obtained after cardiac puncture blood sampling and mice were sacrificed. The liver was rapidly excised for histology and biochemical and transcriptomic analyses.
Total RNA was isolated from mice livers using Nucleospin® 96 RNA kit (Macherey Nagel) following manufacturer's instructions. Illumina NexSeq 500 sequencing technology was used to generate RNAseq data on the livers (n=5 per group). […] The parameters used are an end minimum quality level of 25 and a minimum read length of 50. The unaligned reads were aligned to the Mus musculus mm10 reference genome using the software STAR version 2.5.3. […] Briefly, the count matrix produced by FeatureCounts was analyzed by the DESeqDataSetFromMatrix( ) function followed by the DEseq( ) function from the DESeq2 library. […]

Substance: semaglutide: commercially available GLP-1 receptor agonist
- number of genes differentially modulated in the liver (ELA 10 mg/kg/day, adjusted p<0.01, |fold change|>1.5 (FIG. 10A-B)): 55 genes
- expression of lipid metabolism-related genes in the liver: only modestly affected
